# Experimental data reported in article PMC7144943.
# The chains behind the UniProt entries cited, without tags or fusion partners.
# UniProt A1ZAW0: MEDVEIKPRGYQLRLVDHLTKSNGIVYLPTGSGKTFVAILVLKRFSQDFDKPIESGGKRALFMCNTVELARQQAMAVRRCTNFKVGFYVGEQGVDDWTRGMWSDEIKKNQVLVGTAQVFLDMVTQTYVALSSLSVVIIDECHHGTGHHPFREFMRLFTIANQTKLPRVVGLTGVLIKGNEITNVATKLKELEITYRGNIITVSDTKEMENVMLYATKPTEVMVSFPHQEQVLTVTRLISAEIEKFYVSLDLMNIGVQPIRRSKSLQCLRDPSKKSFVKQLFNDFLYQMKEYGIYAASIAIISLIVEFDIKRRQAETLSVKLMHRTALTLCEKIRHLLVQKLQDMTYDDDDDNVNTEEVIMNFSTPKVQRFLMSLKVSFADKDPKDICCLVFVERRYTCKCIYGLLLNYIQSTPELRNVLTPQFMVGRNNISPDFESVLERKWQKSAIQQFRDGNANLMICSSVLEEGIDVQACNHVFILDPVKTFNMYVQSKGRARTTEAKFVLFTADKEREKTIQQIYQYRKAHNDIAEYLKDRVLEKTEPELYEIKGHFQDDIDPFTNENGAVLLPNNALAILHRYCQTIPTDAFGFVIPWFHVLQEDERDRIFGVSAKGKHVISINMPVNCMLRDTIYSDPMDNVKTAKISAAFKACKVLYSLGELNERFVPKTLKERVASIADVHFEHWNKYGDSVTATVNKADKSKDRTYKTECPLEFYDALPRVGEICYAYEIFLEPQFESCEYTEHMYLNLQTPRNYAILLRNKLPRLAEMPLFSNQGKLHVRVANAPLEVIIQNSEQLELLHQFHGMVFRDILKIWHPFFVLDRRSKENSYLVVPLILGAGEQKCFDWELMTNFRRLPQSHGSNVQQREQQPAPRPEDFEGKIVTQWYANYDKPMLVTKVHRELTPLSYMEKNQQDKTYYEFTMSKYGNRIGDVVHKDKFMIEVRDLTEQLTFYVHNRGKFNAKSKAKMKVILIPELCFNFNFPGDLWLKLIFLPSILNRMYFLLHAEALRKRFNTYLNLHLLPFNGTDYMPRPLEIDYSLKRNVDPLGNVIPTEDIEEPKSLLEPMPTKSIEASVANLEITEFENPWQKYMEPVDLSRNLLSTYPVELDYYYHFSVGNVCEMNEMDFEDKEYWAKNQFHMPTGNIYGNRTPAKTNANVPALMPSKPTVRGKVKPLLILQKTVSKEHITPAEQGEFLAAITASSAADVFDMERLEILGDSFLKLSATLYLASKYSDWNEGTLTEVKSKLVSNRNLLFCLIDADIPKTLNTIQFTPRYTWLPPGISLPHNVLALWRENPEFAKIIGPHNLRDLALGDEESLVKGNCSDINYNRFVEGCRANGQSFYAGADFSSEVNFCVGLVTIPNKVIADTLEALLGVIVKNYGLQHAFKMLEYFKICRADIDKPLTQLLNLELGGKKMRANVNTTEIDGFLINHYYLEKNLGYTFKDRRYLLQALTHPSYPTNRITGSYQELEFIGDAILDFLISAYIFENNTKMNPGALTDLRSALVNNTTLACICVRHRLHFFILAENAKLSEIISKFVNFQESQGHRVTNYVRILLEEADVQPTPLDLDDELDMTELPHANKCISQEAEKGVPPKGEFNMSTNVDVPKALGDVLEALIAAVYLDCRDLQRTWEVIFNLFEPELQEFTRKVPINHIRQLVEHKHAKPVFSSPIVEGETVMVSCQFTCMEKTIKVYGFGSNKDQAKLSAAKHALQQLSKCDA
# No constants are given. Whether binding was seen depends on the method and setting. In cells and extracts the contact can be indirect. Some binding calls cover weakened binding; strength is not graded here. Sequences can lack the tags named with a protein.
# Target: T1, R2D2-Flag (knock-in) (Drosophila (endogenous locus in S2 cells)) (UniProt Q9VLW8)
# T1 sequence: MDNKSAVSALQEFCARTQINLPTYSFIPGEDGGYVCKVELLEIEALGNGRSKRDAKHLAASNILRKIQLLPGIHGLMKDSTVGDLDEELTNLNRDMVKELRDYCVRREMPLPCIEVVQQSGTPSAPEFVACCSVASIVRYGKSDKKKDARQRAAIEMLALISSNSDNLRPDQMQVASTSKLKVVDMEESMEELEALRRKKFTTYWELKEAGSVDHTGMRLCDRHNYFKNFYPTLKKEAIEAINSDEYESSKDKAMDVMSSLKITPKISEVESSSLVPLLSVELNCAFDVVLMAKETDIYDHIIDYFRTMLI
# Assay: co-IP; whole cell lysates of knock-in S2 cells; Flag-tagged protein immunoprecipitated with anti-FLAG M2 on Protein G Dynabeads; lysis in 150 mM KAc pH 7.4, 30 mM HEPES pH 7.4, 5 mM MgAc, 1 mM DTT, 15% glycerol, 1% tergitol; Dcr-2 detected by Western blot (anti-Dcr-2 or anti-Strep tag)
substance,measurement,value
Dcr-2-Strep-tag (knock-in) (from UniProt A1ZAW0 1-1722) (enzyme),binding,binds
